Results published in PMC4207604.
These are yes or no findings as the source states them, for the method shown. In cells and extracts the contact can be indirect. Here binding means that the protein was enriched with, or labelled near, the bait; the list need not be complete.

The chains behind the UniProt entries cited, without tags or fusion partners.
UniProt P13412: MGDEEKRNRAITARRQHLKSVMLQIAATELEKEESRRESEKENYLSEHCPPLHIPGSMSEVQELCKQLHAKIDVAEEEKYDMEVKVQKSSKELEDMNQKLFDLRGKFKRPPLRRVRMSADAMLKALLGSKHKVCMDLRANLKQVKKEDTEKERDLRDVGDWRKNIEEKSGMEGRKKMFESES
UniProt Q14974: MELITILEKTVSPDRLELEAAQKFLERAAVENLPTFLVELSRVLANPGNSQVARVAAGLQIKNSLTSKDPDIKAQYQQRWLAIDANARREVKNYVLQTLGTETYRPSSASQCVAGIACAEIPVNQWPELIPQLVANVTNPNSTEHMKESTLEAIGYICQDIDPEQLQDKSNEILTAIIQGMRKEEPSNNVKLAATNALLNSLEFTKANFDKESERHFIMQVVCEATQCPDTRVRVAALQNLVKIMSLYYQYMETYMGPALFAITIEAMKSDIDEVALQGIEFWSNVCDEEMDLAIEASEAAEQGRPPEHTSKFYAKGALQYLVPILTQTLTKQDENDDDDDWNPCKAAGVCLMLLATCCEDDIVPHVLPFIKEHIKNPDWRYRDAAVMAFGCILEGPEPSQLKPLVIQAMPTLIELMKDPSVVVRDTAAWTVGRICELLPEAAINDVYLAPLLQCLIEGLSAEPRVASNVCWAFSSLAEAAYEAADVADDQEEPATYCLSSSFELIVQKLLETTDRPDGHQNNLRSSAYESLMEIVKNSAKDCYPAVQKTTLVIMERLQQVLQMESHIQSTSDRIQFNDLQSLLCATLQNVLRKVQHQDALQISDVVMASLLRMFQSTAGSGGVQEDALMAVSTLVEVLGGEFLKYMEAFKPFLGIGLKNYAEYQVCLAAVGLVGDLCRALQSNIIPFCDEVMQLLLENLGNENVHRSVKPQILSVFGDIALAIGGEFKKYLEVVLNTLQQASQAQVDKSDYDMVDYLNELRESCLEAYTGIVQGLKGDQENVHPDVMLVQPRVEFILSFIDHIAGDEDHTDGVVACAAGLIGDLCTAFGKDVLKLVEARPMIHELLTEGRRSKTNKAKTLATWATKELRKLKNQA
UniProt Q92973: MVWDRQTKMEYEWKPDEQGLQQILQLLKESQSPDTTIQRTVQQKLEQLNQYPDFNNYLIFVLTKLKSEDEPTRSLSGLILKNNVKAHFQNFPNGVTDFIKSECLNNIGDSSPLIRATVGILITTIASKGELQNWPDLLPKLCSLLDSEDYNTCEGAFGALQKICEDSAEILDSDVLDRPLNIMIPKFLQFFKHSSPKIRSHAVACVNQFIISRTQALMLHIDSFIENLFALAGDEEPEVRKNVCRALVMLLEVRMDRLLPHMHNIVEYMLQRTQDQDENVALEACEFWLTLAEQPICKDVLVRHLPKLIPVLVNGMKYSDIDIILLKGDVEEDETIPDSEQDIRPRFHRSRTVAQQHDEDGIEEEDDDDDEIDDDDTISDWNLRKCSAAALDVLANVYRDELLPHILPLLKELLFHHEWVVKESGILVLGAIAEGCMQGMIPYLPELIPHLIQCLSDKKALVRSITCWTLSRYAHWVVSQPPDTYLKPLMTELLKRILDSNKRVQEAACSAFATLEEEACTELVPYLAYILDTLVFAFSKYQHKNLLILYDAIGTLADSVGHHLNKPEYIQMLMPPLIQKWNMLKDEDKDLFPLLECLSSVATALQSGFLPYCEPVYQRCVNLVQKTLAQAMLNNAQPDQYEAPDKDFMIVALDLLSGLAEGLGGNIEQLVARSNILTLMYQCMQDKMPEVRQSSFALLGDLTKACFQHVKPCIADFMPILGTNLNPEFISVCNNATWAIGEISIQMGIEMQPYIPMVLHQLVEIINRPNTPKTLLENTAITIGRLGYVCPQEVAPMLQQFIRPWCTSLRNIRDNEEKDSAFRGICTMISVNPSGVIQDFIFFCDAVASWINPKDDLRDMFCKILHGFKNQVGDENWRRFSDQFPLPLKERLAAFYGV
UniProt O15397: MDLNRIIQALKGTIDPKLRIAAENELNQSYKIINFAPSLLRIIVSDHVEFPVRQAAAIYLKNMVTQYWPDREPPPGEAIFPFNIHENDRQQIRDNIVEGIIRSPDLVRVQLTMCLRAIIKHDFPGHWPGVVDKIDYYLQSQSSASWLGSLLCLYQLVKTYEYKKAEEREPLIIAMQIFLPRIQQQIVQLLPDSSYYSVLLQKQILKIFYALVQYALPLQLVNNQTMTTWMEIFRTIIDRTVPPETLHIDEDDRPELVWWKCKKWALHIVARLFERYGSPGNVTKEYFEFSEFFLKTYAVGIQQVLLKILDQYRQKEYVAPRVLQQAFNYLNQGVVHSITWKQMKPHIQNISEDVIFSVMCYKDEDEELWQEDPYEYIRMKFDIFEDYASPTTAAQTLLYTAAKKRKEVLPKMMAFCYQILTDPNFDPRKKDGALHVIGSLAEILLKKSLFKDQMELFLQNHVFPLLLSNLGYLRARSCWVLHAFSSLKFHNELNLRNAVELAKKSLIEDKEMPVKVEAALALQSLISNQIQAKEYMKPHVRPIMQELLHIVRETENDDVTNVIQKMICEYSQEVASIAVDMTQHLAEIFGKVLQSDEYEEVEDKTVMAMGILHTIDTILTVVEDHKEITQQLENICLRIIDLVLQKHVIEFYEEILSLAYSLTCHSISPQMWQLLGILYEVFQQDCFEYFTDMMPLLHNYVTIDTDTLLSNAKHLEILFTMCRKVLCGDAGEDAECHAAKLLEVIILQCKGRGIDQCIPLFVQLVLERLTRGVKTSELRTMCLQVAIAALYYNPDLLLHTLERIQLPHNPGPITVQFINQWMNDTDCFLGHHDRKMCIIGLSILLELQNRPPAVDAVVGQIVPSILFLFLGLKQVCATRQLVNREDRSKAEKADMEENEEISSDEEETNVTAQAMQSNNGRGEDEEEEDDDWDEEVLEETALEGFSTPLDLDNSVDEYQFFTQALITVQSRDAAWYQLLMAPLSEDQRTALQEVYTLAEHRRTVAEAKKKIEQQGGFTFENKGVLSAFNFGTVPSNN
UniProt O00410: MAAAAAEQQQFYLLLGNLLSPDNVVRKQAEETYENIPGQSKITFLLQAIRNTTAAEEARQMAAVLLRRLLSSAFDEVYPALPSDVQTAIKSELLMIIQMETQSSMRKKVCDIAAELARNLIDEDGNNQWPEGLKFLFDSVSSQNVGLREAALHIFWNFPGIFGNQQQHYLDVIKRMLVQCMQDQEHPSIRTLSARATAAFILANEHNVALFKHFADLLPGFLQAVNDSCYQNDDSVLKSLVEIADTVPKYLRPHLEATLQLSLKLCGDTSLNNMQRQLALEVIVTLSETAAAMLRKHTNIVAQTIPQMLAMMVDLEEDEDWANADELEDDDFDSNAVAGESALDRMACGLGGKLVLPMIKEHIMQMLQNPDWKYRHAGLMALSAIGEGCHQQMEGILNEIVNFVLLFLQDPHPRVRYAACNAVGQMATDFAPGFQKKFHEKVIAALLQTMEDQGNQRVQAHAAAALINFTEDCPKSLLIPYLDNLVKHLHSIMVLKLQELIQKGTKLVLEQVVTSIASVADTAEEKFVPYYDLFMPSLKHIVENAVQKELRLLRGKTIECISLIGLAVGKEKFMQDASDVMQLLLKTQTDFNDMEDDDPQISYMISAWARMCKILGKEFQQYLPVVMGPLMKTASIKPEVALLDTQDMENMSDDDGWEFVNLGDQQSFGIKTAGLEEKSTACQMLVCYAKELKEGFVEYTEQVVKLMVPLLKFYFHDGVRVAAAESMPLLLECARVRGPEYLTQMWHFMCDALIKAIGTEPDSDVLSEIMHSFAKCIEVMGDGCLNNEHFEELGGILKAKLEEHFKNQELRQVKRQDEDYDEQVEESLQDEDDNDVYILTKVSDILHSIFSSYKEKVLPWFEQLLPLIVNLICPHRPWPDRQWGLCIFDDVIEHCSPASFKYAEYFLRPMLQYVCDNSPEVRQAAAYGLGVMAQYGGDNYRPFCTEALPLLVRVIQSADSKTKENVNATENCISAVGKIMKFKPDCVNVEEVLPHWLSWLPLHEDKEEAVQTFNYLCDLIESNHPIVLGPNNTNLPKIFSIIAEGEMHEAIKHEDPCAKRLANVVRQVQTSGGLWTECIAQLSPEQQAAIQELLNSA

B1: TNPO2 (protein, UniProt O14787 1-897)
chain: MDWQPDEQGLQQVLQLLKDSQSPNTATQRIVQDKLKQLNQFPDFNNYLIFVLTRLKSEDEPTRSLSGLILKNNVKAHYQSFPPPVADFIKQECLNNIGDASSLIRATIGILITTIASKGELQMWPELLPQLCNLLNSEDYNTCEGAFGALQKICEDSSELLDSDALNRPLNIMIPKFLQFFKHCSPKIRSHAIACVNQFIMDRAQALMDNIDTFIEHLFALAVDDDPEVRKNVCRALVMLLEVRIDRLIPHMHSIIQYMLQRTQDHDENVALEACEFWLTLAEQPICKEVLASHLVQLIPILVNGMKYSEIDIILLKGDVEEDEAVPDSEQDIKPRFHKSRTVTLPHEAERPDGSEDAEDDDDDDALSDWNLRKCSAAALDVLANVFREELLPHLLPLLKGLLFHPEWVVKESGILVLGAIAEGCMQGMVPYLPELIPHLIQCLSDKKALVRSIACWTLSRYAHWVVSQPPDMHLKPLMTELLKRILDGNKRVQEAACSAFATLEEEACTELVPYLSYILDTLVFAFGKYQHKNLLILYDAIGTLADSVGHHLNQPEYIQKLMPPLIQKWNELKDEDKDLFPLLECLSSVATALQSGFLPYCEPVYQRCVTLVQKTLAQAMMYTQHPEQYEAPDKDFMIVALDLLSGLAEGLGGHVEQLVARSNIMTLLFQCMQDSMPEVRQSSFALLGDLTKACFIHVKPCIAEFMPILGTNLNPEFISVCNNATWAIGEICMQMGAEMQPYVQMVLNNLVEIINRPNTPKTLLENTGRLTSPSAIPAITIGRLGYVCPQEVAPMLQQFIRPWCTSLRNIRDNEEKDSAFRGICMMIGVNPGGVVQDFIFFCDAVASWVSPKDDLRDMFYKILHGFKDQVGEDNWQQFSEQFPPLLKERLAAFYGV

Each molecule was assayed against wild-type tnni2-GFP fusion protein (troponin I type 2, skeletal, fast) (UniProt P13412) (assay: affinity purification with mass spectrometry; 20 mg nuclear extract of 293T tnni2 wild-type-GFP stable cells incubated with agarose beads coupled with an anti-GFP antibody, 4°C, 4 hours; washed three times with buffer C (10 mM HEPES pH 7.9, 500 mM NaCl, 0.1 mM EDTA, 0.1 mM EGTA, 0.1% NP40, 10% glycerol); IP products analysed by mass spectrometry).

binding, binds:
KPNB1 (from UniProt Q14974 1-876), TNPO1 (from UniProt Q92973 1-898), IPO8 (from UniProt O15397 1-1037), IPO5 (from UniProt O00410 1-1097), B1
